Data taken from PubChem BioAssay AID504749, deposited by NCATS (2011).

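A panel of P. falciparum strains inside erythrocytes is exposed to compounds for three days, then a DNA-binding dye reports the amount of parasite DNA.
Each compound was titrated across a series from about 0.000037 to 29 µM.
The number is the fitted AC50, the concentration giving a half-maximal change in signal; a lower value means higher potency, whether the curve shows a decrease or an increase.
Calls follow the curve class and fit quality: every row here is inconclusive, covering signal-raising curves and weak, poorly fitted, partial or highest-dose-only inhibition curves.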

Values are in µM.
All entries here are filed as inconclusive.
These entries are mostly ones the record files as inconclusive; other results of the assay are not listed here.
Potencies fitted to partial, single-point or poorly fitting curves are rough.
An entry listed twice with the same setting is a separate test.

SMILES | tested on / at | potency (µM) | curve
CN1[C@@H]2CC[C@H]1CC(OC(c1ccccc1)c1ccccc1)C2 (some centres not stated) | PC26 | 4.256 | inhibitor, partial curve
CN1[C@@H]2CC[C@H]1CC(OC(c1ccccc1)c1ccccc1)C2 (some centres not stated) | CP297 | 0.012 | inhibitor, full curve, poor fit
CN1[C@@H]2CC[C@H]1CC(OC(c1ccccc1)c1ccccc1)C2 (some centres not stated) | CP252 | 11.22 | inhibitor, partial curve
CN1[C@@H]2CC[C@H]1CC(OC(c1ccccc1)c1ccccc1)C2 (some centres not stated) | CP305 | 6.746 | inhibitor, partial curve
CN1[C@@H]2CC[C@H]1CC(OC(c1ccccc1)c1ccccc1)C2 (some centres not stated) | PC26 | 10.69 | inhibitor, partial curve
CN1[C@@H]2CC[C@H]1CC(OC(c1ccccc1)c1ccccc1)C2 (some centres not stated) | Dd2 | 3.981 | inhibitor, partial curve
CN1[C@@H]2CC[C@H]1CC(OC(c1ccccc1)c1ccccc1)C2 (some centres not stated) | TAB109 | 7.943 | inhibitor, partial curve
CN1[C@@H]2CC[C@H]1CC(OC(c1ccccc1)c1ccccc1)C2 (some centres not stated) | CP266 | 10.69 | inhibitor, single point
CN1[C@@H]2CC[C@H]1CC(OC(c1ccccc1)c1ccccc1)C2 (some centres not stated) | CP286 | 8.912 | inhibitor, partial curve
CN1[C@@H]2CC[C@H]1CC(OC(c1ccccc1)c1ccccc1)C2 (some centres not stated) | CP252 | 7.943 | inhibitor, partial curve, poor fit
CN1[C@@H]2CC[C@H]1CC(OC(c1ccccc1)c1ccccc1)C2 (some centres not stated) | TAB109 | 11.22 | inhibitor, partial curve
COc1cc([C@H]2c3cc4c(cc3[C@@H](O[C@H]3O[C@H]5CO[C@@H](C)O[C@H]5[C@@H](O)[C@@H]3O)[C@@H]3COC(=O)[C@H]23)OCO4)cc(OC)c1O | CP325 | 21.33 | inhibitor, partial curve, poor fit
COc1cc([C@H]2c3cc4c(cc3[C@@H](O[C@H]3O[C@H]5CO[C@@H](C)O[C@H]5[C@@H](O)[C@@H]3O)[C@@H]3COC(=O)[C@H]23)OCO4)cc(OC)c1O | ICS | 11.22 | inhibitor, single point
COc1cc([C@H]2c3cc4c(cc3[C@@H](O[C@H]3O[C@H]5CO[C@@H](C)O[C@H]5[C@@H](O)[C@@H]3O)[C@@H]3COC(=O)[C@H]23)OCO4)cc(OC)c1O | CP211 | 16.94 | inhibitor, single point
COc1cc([C@H]2c3cc4c(cc3[C@@H](O[C@H]3O[C@H]5CO[C@@H](C)O[C@H]5[C@@H](O)[C@@H]3O)[C@@H]3COC(=O)[C@H]23)OCO4)cc(OC)c1O | ATS189 | 11.22 | inhibitor, single point
COc1cc([C@H]2c3cc4c(cc3[C@@H](O[C@H]3O[C@H]5CO[C@@H](C)O[C@H]5[C@@H](O)[C@@H]3O)[C@@H]3COC(=O)[C@H]23)OCO4)cc(OC)c1O | ATS95 | 11.22 | inhibitor, single point
COc1cc([C@H]2c3cc4c(cc3[C@@H](O[C@H]3O[C@H]5CO[C@@H](C)O[C@H]5[C@@H](O)[C@@H]3O)[C@@H]3COC(=O)[C@H]23)OCO4)cc(OC)c1O | CP286 | 17.78 | inhibitor, single point
COc1cc([C@H]2c3cc4c(cc3[C@@H](O[C@H]3O[C@H]5CO[C@@H](C)O[C@H]5[C@@H](O)[C@@H]3O)[C@@H]3COC(=O)[C@H]23)OCO4)cc(OC)c1O | CP237 | 17.78 | inhibitor, single point
COc1cc([C@H]2c3cc4c(cc3[C@@H](O[C@H]3O[C@H]5CO[C@@H](C)O[C@H]5[C@@H](O)[C@@H]3O)[C@@H]3COC(=O)[C@H]23)OCO4)cc(OC)c1O | CP329 | 19.01 | inhibitor, single point
COc1cc([C@H]2c3cc4c(cc3[C@@H](O[C@H]3O[C@H]5CO[C@@H](C)O[C@H]5[C@@H](O)[C@@H]3O)[C@@H]3COC(=O)[C@H]23)OCO4)cc(OC)c1O | CP191 | 11.22 | inhibitor, single point
COc1cc([C@H]2c3cc4c(cc3[C@@H](O[C@H]3O[C@H]5CO[C@@H](C)O[C@H]5[C@@H](O)[C@@H]3O)[C@@H]3COC(=O)[C@H]23)OCO4)cc(OC)c1O | CP269 | 12 | inhibitor, single point
COc1cc([C@H]2c3cc4c(cc3[C@@H](O[C@H]3O[C@H]5CO[C@@H](C)O[C@H]5[C@@H](O)[C@@H]3O)[C@@H]3COC(=O)[C@H]23)OCO4)cc(OC)c1O | CP252 | 17.78 | inhibitor, single point
COc1cc([C@H]2c3cc4c(cc3[C@@H](O[C@H]3O[C@H]5CO[C@@H](C)O[C@H]5[C@@H](O)[C@@H]3O)[C@@H]3COC(=O)[C@H]23)OCO4)cc(OC)c1O | CP238 | 17.78 | inhibitor, single point
COc1cc([C@H]2c3cc4c(cc3[C@@H](O[C@H]3O[C@H]5CO[C@@H](C)O[C@H]5[C@@H](O)[C@@H]3O)[C@@H]3COC(=O)[C@H]23)OCO4)cc(OC)c1O | ECU | 8.912 | inhibitor, partial curve
COc1cc([C@H]2c3cc4c(cc3[C@@H](O[C@H]3O[C@H]5CO[C@@H](C)O[C@H]5[C@@H](O)[C@@H]3O)[C@@H]3COC(=O)[C@H]23)OCO4)cc(OC)c1O | CP215 | 16.94 | inhibitor, single point
COc1cc([C@H]2c3cc4c(cc3[C@@H](O[C@H]3O[C@H]5CO[C@@H](C)O[C@H]5[C@@H](O)[C@@H]3O)[C@@H]3COC(=O)[C@H]23)OCO4)cc(OC)c1O | DIV30 | 21.33 | inhibitor, single point
COc1cc([C@H]2c3cc4c(cc3[C@@H](O[C@H]3O[C@H]5CO[C@@H](C)O[C@H]5[C@@H](O)[C@@H]3O)[C@@H]3COC(=O)[C@H]23)OCO4)cc(OC)c1O | CP217 | 17.78 | inhibitor, single point
COc1cc([C@H]2c3cc4c(cc3[C@@H](O[C@H]3O[C@H]5CO[C@@H](C)O[C@H]5[C@@H](O)[C@@H]3O)[C@@H]3COC(=O)[C@H]23)OCO4)cc(OC)c1O | AA1029 | 11.22 | inhibitor, single point
COc1cc([C@H]2c3cc4c(cc3[C@@H](O[C@H]3O[C@H]5CO[C@@H](C)O[C@H]5[C@@H](O)[C@@H]3O)[C@@H]3COC(=O)[C@H]23)OCO4)cc(OC)c1O | AS120 | 10 | inhibitor, single point
COc1cc([C@H]2c3cc4c(cc3[C@@H](O[C@H]3O[C@H]5CO[C@@H](C)O[C@H]5[C@@H](O)[C@@H]3O)[C@@H]3COC(=O)[C@H]23)OCO4)cc(OC)c1O | N140 | 17.78 | inhibitor, single point
COc1cc([C@H]2c3cc4c(cc3[C@@H](O[C@H]3O[C@H]5CO[C@@H](C)O[C@H]5[C@@H](O)[C@@H]3O)[C@@H]3COC(=O)[C@H]23)OCO4)cc(OC)c1O | P93_24 | 10 | inhibitor, single point
COc1cc([C@H]2c3cc4c(cc3[C@@H](O[C@H]3O[C@H]5CO[C@@H](C)O[C@H]5[C@@H](O)[C@@H]3O)[C@@H]3COC(=O)[C@H]23)OCO4)cc(OC)c1O | SC27B | 10 | inhibitor, single point

The first 2 entries again:

| SMILES | tested on / at | potency (µM) | curve |
|---|---|---|---|
| `CN1[C@@H]2CC[C@H]1CC(OC(c1ccccc1)c1ccccc1)C2` (some centres not stated) | PC26 | 4.256 | inhibitor, partial curve |
| `CN1[C@@H]2CC[C@H]1CC(OC(c1ccccc1)c1ccccc1)C2` (some centres not stated) | CP297 | 0.012 | inhibitor, full curve, poor fit |